In PubChem BioAssay AID504847 (National Center for Advancing Translational Sciences (NCATS), 2011):
Hit rate of the full screen: of about 400,000 compounds, about 3,700 (0.93%) were called active. Inconclusive means that the source gave no clear call. Such entries were picked first, then a sample of the others. Calls follow the shape of the dose curve; as a rule, active = well fitted inhibition curve with a large enough effect; inconclusive = small, poorly fitted or top-dose-only effect, or another doubt; inactive = no such curve, though single readings can be large or run the other way. A potency beside an inconclusive call is a rough fit, not a confirmed value.

Sequences of proteins named here, by UniProt entry; tags and fusion partners are left off.
UniProt P11473, whole entry, looked up: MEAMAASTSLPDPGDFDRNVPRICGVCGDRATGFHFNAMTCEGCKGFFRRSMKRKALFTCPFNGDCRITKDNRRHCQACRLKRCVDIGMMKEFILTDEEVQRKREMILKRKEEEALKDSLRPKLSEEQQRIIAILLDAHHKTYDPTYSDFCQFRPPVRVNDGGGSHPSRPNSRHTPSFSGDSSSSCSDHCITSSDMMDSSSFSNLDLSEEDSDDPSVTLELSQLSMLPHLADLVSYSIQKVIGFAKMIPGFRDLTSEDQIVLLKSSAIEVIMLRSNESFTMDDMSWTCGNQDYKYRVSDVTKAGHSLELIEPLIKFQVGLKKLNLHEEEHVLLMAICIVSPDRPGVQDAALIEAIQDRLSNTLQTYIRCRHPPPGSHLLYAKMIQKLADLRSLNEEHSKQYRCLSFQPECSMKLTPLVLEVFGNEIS

target: Vitamin D3 receptor (Homo sapiens) (UniProt P11473); assay: Inhibitors of the vitamin D receptor (VDR): qHTS; conditions: VDR-SRC2-3 peptide fluorescence polarization, 2 h; max response, negative = inhibition: hits give low values
Summary of the method: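 Two reagent solutions held at 4 deg C in the dark were dispensed, compounds pinned at 23 nl, and the mixture incubated 2 h at room temperature. Read-out: fluorescence polarization of VDR–SRC2-3 peptide binding.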
% is scaled to controls: 0 for no effect and ±100 for the full control effect; potency is read from the fitted curve at half-maximal effect.

Row | Structure (SMILES) | max response, negative = inhibition | Potency
1 | CC(CS(=O)(=O)c1ccc2c(c1)NC(=O)CS2)C(=O)NCc1ccccc1Cl (stereo not drawn) | inactive: 5.65% | –
2 | COc1ccccc1/C=C1/C(=O)ON=C1C | – | active: 50.1 µM
3 | O=C(/C=C/Nc1ccccc1C(=O)O)c1cccs1 | – | inconclusive: 89.1 µM [inhibitor, single point]
4 | O=C1CCN(Cc2ccccc2)C=C1C(=O)c1ccccc1 | – | inconclusive: 100 µM [inhibitor, partial curve, poor fit]
5 | Cc1cc(F)ccc1NC(=O)CCn1nc(C)c(S(=O)(=O)N2CCCCC2)c1C | inactive: 1.1% | –
6 | CC1=C(C(=O)O)N2C(=O)[C@@H](NC(=O)[C@@H](N)c3ccccc3)[C@@H]2SC1 | inactive: 0.624% | –
7 | O=C(CN1C(=O)/C(=C2\SC(=S)N(CCS(=O)(=O)O)C2=O)c2ccccc21)Nc1cccc(Br)c1 | – | inconclusive: 44.7 µM [inhibitor, partial curve]
8 | COc1cc(C(=O)CCN2CCC(c3ccccc3)C2)cc(OC)c1OC (stereo not drawn) | – | inconclusive: 89.1 µM [inhibitor, single point]
9 | Cc1cccc(OCCCn2c(CCNC(=O)C3CCCCC3)nc3ccccc32)c1 | inactive: -1.1% | –
10 | Cc1ccc(OCCCC(=O)N(C)CC(=O)Nc2ccccc2Cl)cc1 | – | inconclusive: 39.8 µM [inhibitor, single point]
11 | COc1ccc(C)cc1N1C(=N)/C(=C2/Nc3ccccc3S2)C(c2ccccc2)C1=O (stereo not drawn) | – | inconclusive: 89.1 µM [inhibitor, partial curve, poor fit]
12 | COc1cccc(NC(=O)CSc2c3c(nc4ccccc24)CCCC3)c1 | – | inconclusive: 100 µM [inhibitor, single point]
13 | O=C(O)c1cc(-c2ccc(-c3ccc(F)cc3)o2)nc2ccccc12 | – | inconclusive: 89.1 µM [inhibitor, single point]
14 | COC(=O)CC(=O)CSc1nc2cc(C(=O)NCC(C)C)ccc2c(=O)n1CCc1ccccc1 | inactive: 15.3% | –
15 | COc1ccc(-c2cc3nc(C)c(CCC(=O)NC(C)c4ccccc4)c(C)n3n2)c(OC)c1 (stereo not drawn) | inactive: -10.2% | –
16 | COc1ccc(CN2CSC(=S)N(Cc3ccc(OC)cc3)C2)cc1 | inactive: -7.86% | –
17 | O=C(O)c1c(Cl)c(Cl)c(Cl)c(Cl)c1-c1c2cc(I)c(=O)c(I)c-2oc2c(I)c(O)c(I)cc12 | – | active: 5.62 µM
18 | FC(F)Oc1ccccc1NC(=S)Nc1cccc(Cl)c1Cl | – | inconclusive: 89.1 µM [inhibitor, single point]
19 | O=C1N/C(=C\c2ccc(O)cc2)C(=O)c2ccccc21 | – | inconclusive: 56.2 µM [inhibitor, partial curve, poor fit]
20 | Cc1nc(S/C(=C\c2ccc(-c3ccc(C(=O)O)c(Cl)c3)o2)C(=O)O)n[nH]1 | – | inconclusive: 79.4 µM [inhibitor, partial curve, poor fit]
21 | CC1CCc2c(c3ccccc3n2C(=O)CCl)C1 (stereo not drawn) | – | inconclusive: 22.4 µM [inhibitor, full curve, poor fit]
22 | Cc1cccc(Nc2nnc(-c3ccc(C)c(S(=O)(=O)N4CCN(C)CC4)c3)c3ccccc23)c1 | inactive: -10.4% | –

Reprinted, compounds 18–19
Row | Structure (SMILES) | max response, negative = inhibition | Potency
18 | FC(F)Oc1ccccc1NC(=S)Nc1cccc(Cl)c1Cl | – | inconclusive: 89.1 µM [inhibitor, single point]
19 | O=C1N/C(=C\c2ccc(O)cc2)C(=O)c2ccccc21 | – | inconclusive: 56.2 µM [inhibitor, partial curve, poor fit]

Remaining list, next part:

Row | Structure (SMILES) | max response, negative = inhibition | Potency
23 | Cn1cccc1C(=O)N1CCC2(CCCN(c3ccc(-c4ccccc4)cc3)C2)CC1 | – | inconclusive: 39.8 µM [inhibitor, partial curve, poor fit]
24 | CC(C)CSC1=NSC2=NC(=O)/C(=C\c3coc4ccccc4c3=O)C(=N)N12 | – | active: 79.4 µM
25 | O=C(O)CCc1ccc(-c2ccccc2)n1-c1ccc(C(=O)O)cc1 | – | inconclusive: 63.1 µM [inhibitor, partial curve, poor fit]
26 | C(=N\N(c1ccccc1)c1ccccc1)/c1ccccn1 | inactive: 9.22% | –
27 | COc1ccccc1N(Cc1cc(=O)[nH]c2ccccc12)C(=O)c1cccc([N+](=O)[O-])c1 | – | inconclusive: 17.8 µM [inhibitor, single point]
28 | COc1cccc(NC(=O)CCc2nnc3ccc(N4CCC(C)CC4)nn23)c1 | – | inconclusive: 20 µM [inhibitor, partial curve]
29 | CCOc1ccc(NC(=O)c2ccccc2OCC(=O)c2ccc(C)cc2)cc1 | – | inconclusive: 22.4 µM [inhibitor, single point]
30 | C=CC[C@H]1C=C[C@@H](C(C(=O)OC)C(=O)OC)CN1C(C)=O | – | inconclusive: 89.1 µM [inhibitor, single point]
31 | Cc1cc(=O)oc2cc(OCC(=O)OCC(=O)NC(=O)NC(C)C)ccc12 | inactive: -13.5% | –
32 | CN(CC(=O)Nc1cccc(F)c1)C(=O)/C=C/c1ccc(S(=O)(=O)N2CCCCCC2)cc1 | – | inconclusive: 79.4 µM [inhibitor, single point]
33 | COc1ccc(C(=O)N2CCCC(CCC(=O)NCc3ccc(F)c(F)c3)C2)cc1F (stereo not drawn) | inactive: 16.3% | –
34 | COc1ccc(CCNC(=O)c2ccc3nc(N4CCCCC4)sc3c2)cc1OC | inactive: -3.72% | –
35 | COc1ccc(CC(C)CC(=O)NCCc2ccc(OC)c(OC)c2)cc1 (stereo not drawn) | – | inconclusive: 100 µM [inhibitor, partial curve, poor fit]
36 | CC(C)(C)c1nn(-c2ccccc2)c2[nH]c(=O)c(CNCc3ccco3)cc12 | inactive: 14.4% | –
37 | CC(C)(C)OC(=O)C[C@@H]1C/C=C\C[C@@H](CC(=O)N(CCO)Cc2ccccc2)C(=O)NC[C@@H](c2ccccc2)OC1=O | inactive: -1.08% | –
38 | Cc1ccc(SSc2cc(C)ccc2N)c(N)c1 | – | active: 6.31 µM
39 | COCCN(C(=O)c1snc(C(N)=O)c1N)C(C(=O)NC1CCCCC1)c1ccc(OC)c(OC)c1 (stereo not drawn) | – | inconclusive: 63.1 µM [inhibitor, partial curve, poor fit]
40 | COC(=O)C=C1CCC2C3CCC4=CC(=O)C(Br)CC4(C)C3C(=O)CC12C (stereo not drawn) | inactive: 2.45% | –
41 | Cn1nnnc1Sc1ncnc2scc(-c3ccccc3)c12 | – | inconclusive: 89.1 µM [inhibitor, single point]
42 | COc1cccc(C(=O)NC(Cc2ccccc2)c2ccc3c(c2)OCCCO3)c1 (stereo not drawn) | inactive: -1.83% | –
43 | CCOc1ccc(-n2c(SCC(=O)Nc3ccc(CC)cc3)nc3n[nH]c(C)c3c2=N)cc1 | inactive: -9.86% | –
